PubChem BioAssay AID1224831, NIAID, 2016
Aim: 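Genes that support or restrain LPS-induced TNF-alpha reporter activity in macrophage-like cells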 (follow-up of hits). Cell system: human THP-1 B5 monocytic leukaemia cells carrying a TNF promoter luciferase reporter, made macrophage-like with PMA. Reagent: single siRNA against human genes, 50 nM. Timing: about 68 h of knock-down, then 4 h LPS. Challenge: LPS (Salmonella minnesota, TLR-grade) at 10 ng/ml for 4 h; PMA 5 ng/ml present during knock-down. Measurement: 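TNF promoter reporter read as dual luciferase ratio after 4 h LPS, normalised per plate to its median, given as replicate mean robust z-score per siRNA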. Direction: TNF reporter z-score: higher = stronger LPS-induced TNF reporter signal; z-score, median over gene's siRNAs: higher = stronger TNF reporter signal across the gene's siRNAs. Rule for the call: 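Two-sided call: reduced or raised TNF reporter signal counts as active once mean z reaches about -1 or below, or about 1.5 or above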. Calls: active = changed TNF reporter (either direction); inactive = little change.
This is a random part of about 3,500 reagents. 731 of them (21%) were called active. 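Active means either lowered or raised reporter signal; the gene-median score did not drive the per-siRNA calls.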 Unmarked entries are inactive. Reagents against one gene are numbered here.

The first 3 records as a preview:
{"gene": "MEPCE", "reagent no.": 1, "TNF reporter z-score, replicate mean": 0.6, "z-score, median over gene's siRNAs": 0}
{"gene": "MEPCE", "reagent no.": 2, "TNF reporter z-score, replicate mean": -0.15, "z-score, median over gene's siRNAs": 0}
{"gene": "MEPCE", "reagent no.": 3, "TNF reporter z-score, replicate mean": -0.47, "z-score, median over gene's siRNAs": 0}

Results, from the start:
{"gene": "MEPCE", "reagent no.": 1, "TNF reporter z-score, replicate mean": 0.6, "z-score, median over gene's siRNAs": 0}
{"gene": "MEPCE", "reagent no.": 2, "TNF reporter z-score, replicate mean": -0.15, "z-score, median over gene's siRNAs": 0}
{"gene": "MEPCE", "reagent no.": 3, "TNF reporter z-score, replicate mean": -0.47, "z-score, median over gene's siRNAs": 0}
{"gene": "MEPCE", "reagent no.": 4, "TNF reporter z-score, replicate mean": 0.15, "z-score, median over gene's siRNAs": 0}
{"gene": "MEPCE", "reagent no.": 5, "TNF reporter z-score, replicate mean": -0.53, "z-score, median over gene's siRNAs": 0}
{"gene": "MEPCE", "reagent no.": 6, "TNF reporter z-score, replicate mean": 1.33, "z-score, median over gene's siRNAs": 0}
{"gene": "ALDOA", "reagent no.": 1, "TNF reporter z-score, replicate mean": -0.63, "z-score, median over gene's siRNAs": -0.465}
{"gene": "ALDOA", "reagent no.": 2, "TNF reporter z-score, replicate mean": 0.07, "z-score, median over gene's siRNAs": -0.465}
{"gene": "ALDOA", "reagent no.": 3, "TNF reporter z-score, replicate mean": -0.46, "z-score, median over gene's siRNAs": -0.465}
{"gene": "ALDOA", "reagent no.": 4, "TNF reporter z-score, replicate mean": "-1.39 (active)", "z-score, median over gene's siRNAs": -0.465}
{"gene": "ALDOA", "reagent no.": 5, "TNF reporter z-score, replicate mean": 0.13, "z-score, median over gene's siRNAs": -0.465}
{"gene": "ALDOA", "reagent no.": 6, "TNF reporter z-score, replicate mean": -0.47, "z-score, median over gene's siRNAs": -0.465}
{"gene": "KNCN", "reagent no.": 1, "TNF reporter z-score, replicate mean": 0.46, "z-score, median over gene's siRNAs": 0.515}
{"gene": "KNCN", "reagent no.": 2, "TNF reporter z-score, replicate mean": 0.59, "z-score, median over gene's siRNAs": 0.515}
{"gene": "KNCN", "reagent no.": 3, "TNF reporter z-score, replicate mean": "1.55 (active)", "z-score, median over gene's siRNAs": 0.515}
{"gene": "KNCN", "reagent no.": 4, "TNF reporter z-score, replicate mean": -0.29, "z-score, median over gene's siRNAs": 0.515}
{"gene": "KNCN", "reagent no.": 5, "TNF reporter z-score, replicate mean": -0.2, "z-score, median over gene's siRNAs": 0.515}
{"gene": "KNCN", "reagent no.": 6, "TNF reporter z-score, replicate mean": 0.57, "z-score, median over gene's siRNAs": 0.515}
{"gene": "ELAVL3", "reagent no.": 1, "TNF reporter z-score, replicate mean": 1.45, "z-score, median over gene's siRNAs": 0.67}
{"gene": "ELAVL3", "reagent no.": 2, "TNF reporter z-score, replicate mean": 1.15, "z-score, median over gene's siRNAs": 0.67}
{"gene": "ELAVL3", "reagent no.": 3, "TNF reporter z-score, replicate mean": 0.19, "z-score, median over gene's siRNAs": 0.67}
{"gene": "ELAVL3", "reagent no.": 4, "TNF reporter z-score, replicate mean": -0.38, "z-score, median over gene's siRNAs": 0.67}
{"gene": "ELAVL3", "reagent no.": 5, "TNF reporter z-score, replicate mean": "2.66 (active)", "z-score, median over gene's siRNAs": 0.67}
{"gene": "ELAVL3", "reagent no.": 6, "TNF reporter z-score, replicate mean": -0.03, "z-score, median over gene's siRNAs": 0.67}
{"gene": "CNMD", "reagent no.": 1, "TNF reporter z-score, replicate mean": -0.41, "z-score, median over gene's siRNAs": 0.35}
{"gene": "CNMD", "reagent no.": 2, "TNF reporter z-score, replicate mean": "1.74 (active)", "z-score, median over gene's siRNAs": 0.35}
{"gene": "CNMD", "reagent no.": 3, "TNF reporter z-score, replicate mean": "2.58 (active)", "z-score, median over gene's siRNAs": 0.35}
{"gene": "CNMD", "reagent no.": 4, "TNF reporter z-score, replicate mean": 0.14, "z-score, median over gene's siRNAs": 0.35}
{"gene": "CNMD", "reagent no.": 5, "TNF reporter z-score, replicate mean": 0.56, "z-score, median over gene's siRNAs": 0.35}
{"gene": "CNMD", "reagent no.": 6, "TNF reporter z-score, replicate mean": 0.06, "z-score, median over gene's siRNAs": 0.35}
